Data reported in doi:10.1101/2024.11.18.623856.
These are yes or no findings as the source states them, for the method shown. Binding seen in cells or lysates may run through a third protein. Some entries that bind do so weakly or less than the wild type.

The chains behind the UniProt entries cited, without tags or fusion partners. Residues count along the entry.
UniProt Q14833, residues 33-912: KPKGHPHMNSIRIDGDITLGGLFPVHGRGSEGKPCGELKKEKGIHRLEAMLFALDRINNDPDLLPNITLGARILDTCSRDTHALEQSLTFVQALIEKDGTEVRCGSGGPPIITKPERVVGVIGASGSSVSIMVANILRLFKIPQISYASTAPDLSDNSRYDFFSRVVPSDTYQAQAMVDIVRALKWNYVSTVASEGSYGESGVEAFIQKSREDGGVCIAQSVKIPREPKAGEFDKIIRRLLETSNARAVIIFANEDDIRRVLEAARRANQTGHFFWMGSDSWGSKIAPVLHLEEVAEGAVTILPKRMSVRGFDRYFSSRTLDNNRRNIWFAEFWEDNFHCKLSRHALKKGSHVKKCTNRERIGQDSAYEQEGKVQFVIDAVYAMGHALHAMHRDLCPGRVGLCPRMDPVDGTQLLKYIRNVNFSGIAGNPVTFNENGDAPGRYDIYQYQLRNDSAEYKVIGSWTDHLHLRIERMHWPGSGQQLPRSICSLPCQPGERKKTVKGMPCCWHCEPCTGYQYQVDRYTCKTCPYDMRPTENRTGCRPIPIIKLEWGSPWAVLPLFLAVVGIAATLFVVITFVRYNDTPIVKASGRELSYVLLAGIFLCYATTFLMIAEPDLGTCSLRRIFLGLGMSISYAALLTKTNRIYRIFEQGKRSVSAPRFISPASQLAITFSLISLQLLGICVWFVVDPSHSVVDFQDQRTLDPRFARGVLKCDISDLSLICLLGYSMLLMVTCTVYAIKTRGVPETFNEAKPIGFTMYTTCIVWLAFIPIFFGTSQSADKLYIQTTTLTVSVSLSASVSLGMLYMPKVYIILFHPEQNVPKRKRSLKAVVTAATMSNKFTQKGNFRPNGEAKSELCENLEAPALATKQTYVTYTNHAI
UniProt Q14831, residues 35-915: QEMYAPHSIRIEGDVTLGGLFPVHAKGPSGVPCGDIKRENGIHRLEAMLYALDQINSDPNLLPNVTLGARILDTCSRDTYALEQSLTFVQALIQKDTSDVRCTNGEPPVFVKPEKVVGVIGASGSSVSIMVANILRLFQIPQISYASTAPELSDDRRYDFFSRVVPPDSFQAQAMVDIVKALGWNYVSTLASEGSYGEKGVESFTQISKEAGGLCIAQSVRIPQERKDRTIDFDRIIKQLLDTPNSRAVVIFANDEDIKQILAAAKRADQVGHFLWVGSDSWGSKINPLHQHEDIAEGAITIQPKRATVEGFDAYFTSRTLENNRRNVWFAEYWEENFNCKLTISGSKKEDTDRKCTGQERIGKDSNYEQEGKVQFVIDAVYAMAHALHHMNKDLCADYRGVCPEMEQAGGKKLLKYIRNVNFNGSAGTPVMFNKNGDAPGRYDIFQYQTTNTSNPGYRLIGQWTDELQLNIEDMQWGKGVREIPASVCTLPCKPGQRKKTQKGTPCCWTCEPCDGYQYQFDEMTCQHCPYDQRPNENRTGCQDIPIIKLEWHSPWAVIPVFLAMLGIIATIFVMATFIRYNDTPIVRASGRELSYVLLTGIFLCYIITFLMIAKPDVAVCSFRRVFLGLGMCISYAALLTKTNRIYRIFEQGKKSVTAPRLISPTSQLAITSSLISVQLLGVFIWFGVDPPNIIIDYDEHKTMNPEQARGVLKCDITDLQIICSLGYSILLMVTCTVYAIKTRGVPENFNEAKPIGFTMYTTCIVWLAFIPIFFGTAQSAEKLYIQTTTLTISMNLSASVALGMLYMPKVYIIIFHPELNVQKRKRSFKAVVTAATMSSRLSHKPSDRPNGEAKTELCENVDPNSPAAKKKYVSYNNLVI
UniProt O00222, residues 34-908: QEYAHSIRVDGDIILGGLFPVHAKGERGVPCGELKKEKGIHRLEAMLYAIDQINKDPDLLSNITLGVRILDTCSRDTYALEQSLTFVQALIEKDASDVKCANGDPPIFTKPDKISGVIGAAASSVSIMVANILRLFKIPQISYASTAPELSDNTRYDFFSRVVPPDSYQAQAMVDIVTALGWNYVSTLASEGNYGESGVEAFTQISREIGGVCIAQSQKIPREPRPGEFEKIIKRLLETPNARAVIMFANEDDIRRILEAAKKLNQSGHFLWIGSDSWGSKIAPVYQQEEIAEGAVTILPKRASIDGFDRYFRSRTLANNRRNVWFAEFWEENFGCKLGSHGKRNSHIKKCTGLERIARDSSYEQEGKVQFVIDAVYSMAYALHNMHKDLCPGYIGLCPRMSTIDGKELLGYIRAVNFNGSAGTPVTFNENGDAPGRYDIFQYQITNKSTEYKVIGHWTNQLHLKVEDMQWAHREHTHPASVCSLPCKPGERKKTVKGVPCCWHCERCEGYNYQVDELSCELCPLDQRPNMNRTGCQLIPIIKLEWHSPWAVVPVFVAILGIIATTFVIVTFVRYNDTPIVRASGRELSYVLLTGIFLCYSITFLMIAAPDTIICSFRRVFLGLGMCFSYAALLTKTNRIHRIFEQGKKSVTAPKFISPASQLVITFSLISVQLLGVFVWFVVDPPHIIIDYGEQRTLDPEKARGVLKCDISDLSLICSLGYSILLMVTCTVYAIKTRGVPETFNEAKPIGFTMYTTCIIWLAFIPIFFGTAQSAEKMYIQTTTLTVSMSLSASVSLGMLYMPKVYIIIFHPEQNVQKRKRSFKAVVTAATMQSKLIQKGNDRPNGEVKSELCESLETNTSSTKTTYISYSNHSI
UniProt Q14832, residues 23-879: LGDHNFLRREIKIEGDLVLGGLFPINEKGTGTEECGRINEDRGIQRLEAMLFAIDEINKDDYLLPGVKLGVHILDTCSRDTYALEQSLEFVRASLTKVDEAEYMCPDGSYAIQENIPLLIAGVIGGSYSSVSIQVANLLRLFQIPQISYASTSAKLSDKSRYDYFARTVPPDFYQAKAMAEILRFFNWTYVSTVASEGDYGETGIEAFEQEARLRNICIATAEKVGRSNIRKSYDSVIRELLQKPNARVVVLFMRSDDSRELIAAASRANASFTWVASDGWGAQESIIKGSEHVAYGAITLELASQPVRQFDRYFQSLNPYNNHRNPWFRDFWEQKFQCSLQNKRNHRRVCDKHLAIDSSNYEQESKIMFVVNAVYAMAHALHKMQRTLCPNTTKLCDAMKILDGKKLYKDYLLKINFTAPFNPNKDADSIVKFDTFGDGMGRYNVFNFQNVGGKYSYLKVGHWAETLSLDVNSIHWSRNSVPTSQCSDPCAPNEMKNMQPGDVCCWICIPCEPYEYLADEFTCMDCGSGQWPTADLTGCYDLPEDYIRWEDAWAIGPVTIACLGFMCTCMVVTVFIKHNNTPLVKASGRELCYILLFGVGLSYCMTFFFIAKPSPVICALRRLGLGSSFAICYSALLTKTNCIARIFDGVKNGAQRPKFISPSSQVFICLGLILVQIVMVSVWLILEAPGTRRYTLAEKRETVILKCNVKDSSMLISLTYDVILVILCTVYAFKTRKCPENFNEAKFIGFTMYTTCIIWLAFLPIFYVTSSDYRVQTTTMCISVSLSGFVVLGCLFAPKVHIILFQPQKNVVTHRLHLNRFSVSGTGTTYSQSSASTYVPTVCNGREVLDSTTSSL

How the values were obtained:
Assay in all cases: split reporter
[1] = target: human metabotropic glutamate receptor 4, NanoBit tagged (human) (UniProt Q14833)
[2] = target: human metabotropic glutamate receptor 7, NanoBit tagged (human) (UniProt Q14831)
[3] = target: human metabotropic glutamate receptor 8, NanoBit tagged (human) (UniProt O00222)

Measured: binding

human metabotropic glutamate receptor 3, NanoBit tagged (from UniProt Q14832 23-879)
binds: all assays above
